In US20230357395A1:
Numbering of substitutions follows the chain as printed. These are yes or no findings as the source states them, for the method shown. Some entries that bind do so weakly or less than the wild type.

Protein sequences, listed by entry. Tags and fused reporters are not part of them. Residues count along the entry.
UniProt P01850, residues 1-129: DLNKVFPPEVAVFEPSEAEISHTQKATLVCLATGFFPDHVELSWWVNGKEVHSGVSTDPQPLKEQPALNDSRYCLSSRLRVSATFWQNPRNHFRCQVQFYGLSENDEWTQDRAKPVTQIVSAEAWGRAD

B1: JOVI.1 anti-TRBC1 mAb (bivalent) (antibody, V domains shown)
VH: EVRLQQSGPDLIKPGASVKMSCKASGYTFTGYVMHWVKQRPGQGLEWIGFINPYNDDIQSNERFRGKATLTSDKSSTTAYMELSSLTSEDSAVYYCARGAGYNFDGAYRFFDFWGQGTTLTVSS
VL: DVVMTQSPLSLPVSLGDQASISCRSSQRLVHSNGNTYLHWYLQKPGQSPKLLIYRVSNRFPGVPDRFSGSGSGTDFTLKISRVEAEDLGIYFCSQSTHVPYTFGGGTKLEIK
B2: BKM0191 (single arm) (antibody, V domains shown)
VH: QVQLVQSGAEVKKPGSSVKVSCKASGYTFTGYVMHWVRQAPGQGLEWMGFIIPIFGTANYAQKFQGRVTITSDKSTTTAYMELSSLRSEDTAVYYCARGAGYNFDGAYRFFDFWGQGTLVTVSS
VL: B1 VL with S14T, D17Q, Q18P, G34A, L42Q, K44R, K50R, L88V, I90V, L109V
B3: BKM0192 (single arm) (antibody, V domains shown)
VH: B2 VH
VL: B1 VL with S14T, D17Q, Q18P, T36A, L42Q, K44R, K50R, L88V, I90V, L109V
B4: BKM0193 (single arm) (antibody, V domains shown)
VH: B2 VH
VL: DVVMTQSPLSLPVTLGQPASISCRSSQRLVHSNANAYLHWYQQRPGQSPRLLIYRVSNRFPGVPDRFSGSGSGTDFTLKISRVEAEDVGVYFCSQSTHVPYTFGGGTKVEIK
B5: JOVI.1 Fab BIM0446 (Fab, V domains shown)
VH: B1 VH
VL: B1 VL
B6: BKM0194 (single arm) (antibody, V domains shown)
VH: B2 VH
VL: B4 VL with N33G, A34G, A36T
B7: BKM0195 (single arm) (antibody, V domains shown)
VH: B2 VH
VL: B4 VL with A34G, N35S, A36T
B8: BKM0196 (single arm) (antibody, V domains shown)
VH: B2 VH
VL: B4 VL with N33G, A34G, N35S, A36T
B9: humanized JOVI.1 Fab BIM0460 (Fab, V domains shown)
VH: QVQLVQSGAEVKKPGSSVKVSCKASGYTFTGYVMHWVRQAPGQGLEWMGFINPYNDDIQSNERFRGRVTITSDKSTTTAYMELSSLRSEDTAVYYCARGAGYNFDGAYRFFDFWGQGTLVTVSS
VL: B4 VL with A34G, A36T

Columns and labels:
[1] = biological target: human TRBC1 (hTRBC1), construct BIM0444 (human) (UniProt P01850); experiment: ELISA, antibody coated at 1 ug/mL, hTRBC1 BIM0444 titrated 100 nM to 6.4 pM
[2] = biological target: human TRBC1 (hTRBC1), construct BIM0444 (human) (UniProt P01850); experiment: ELISA (FIG. 7)
[3] = biological target: human TRBC1 (hTRBC1), construct BIM0443 (human) (UniProt P01850); experiment: SPR (BIAcore T200)
[4] = biological target: human TRBC1 (hTRBC1), construct BIM0444 (human) (UniProt P01850); experiment: Octet (BLI), hTRBC1 BIM0444 on Protein A biosensors, Fab 50 nM to 0.78 nM
[5] = biological target: human TRBC1 (hTRBC1), construct BIM0444 (human) (UniProt P01850); experiment: Octet (FIG. 8)

Binder | binding [3] | also measured
B1 | – | binding [1]: binds; binding [2]: binds
B2 | binds | –
B3 | binds | –
B4 | binds | –
B5 | – | binding [4]: binds; binding [5]: binds
B6 | binds | –
B7 | binds | –
B8 | binds | –
B9 | – | binding [4]: binds; binding [5]: binds
